The values below come from patent publication US20030223975.

By UniProt entry, the sequences of proteins in these tests, tags left out. Chains listed by the source or under a name are the forms on record and can include a tag or linker.
UniProt P62961, other isoform, or with tags, fused parts or gaps: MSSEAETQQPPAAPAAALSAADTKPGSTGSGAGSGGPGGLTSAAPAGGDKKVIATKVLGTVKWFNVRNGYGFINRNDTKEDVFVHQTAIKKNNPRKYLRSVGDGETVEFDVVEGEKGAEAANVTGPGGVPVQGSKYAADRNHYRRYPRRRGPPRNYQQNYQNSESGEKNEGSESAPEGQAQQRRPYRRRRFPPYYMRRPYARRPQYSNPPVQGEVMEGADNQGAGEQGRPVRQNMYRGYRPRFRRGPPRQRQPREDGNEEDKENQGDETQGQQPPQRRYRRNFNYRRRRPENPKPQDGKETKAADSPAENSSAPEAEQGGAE
UniProt P67809, other isoform, or with tags, fused parts or gaps: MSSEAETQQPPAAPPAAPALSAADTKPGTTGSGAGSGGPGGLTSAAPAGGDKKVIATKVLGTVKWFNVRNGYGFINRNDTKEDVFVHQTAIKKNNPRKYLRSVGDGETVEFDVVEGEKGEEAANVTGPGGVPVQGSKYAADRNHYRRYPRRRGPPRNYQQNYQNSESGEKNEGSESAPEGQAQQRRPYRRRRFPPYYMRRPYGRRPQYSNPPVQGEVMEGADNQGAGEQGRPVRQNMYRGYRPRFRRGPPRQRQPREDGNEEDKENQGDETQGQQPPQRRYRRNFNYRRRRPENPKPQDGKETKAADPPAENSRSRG

The exact form of at least one protein or probe is not confirmed. Results from cells or extracts need not show a direct contact.

For data set [1], the target named is YB-1 in Rat1 nuclear extract (Rattus norvegicus) (UniProt P62961). Nature of the data set: pull-down. As to conditions: less YB-1 retained than from HepG2 extract; protein in an extract; label: 32P (EMSA) or biotin (pull-down); variant of PTP1B enhancer -167/-132. In general terms: Mobility shift assays separate free from complexed probe on a gel.
The target in data set [2] is YB-1 in HepG2 nuclear extract (Homo sapiens) (UniProt P67809). Nature of the data set: pull-down. As to conditions: more YB-1 retained than from Rat1 extract; protein in an extract; label: 32P (EMSA) or biotin (pull-down); variant of PTP1B enhancer -167/-132.

For the sequence “AGATATCTCGCGGTGCTGGGGCCA (double strand) [PTP1B enhancer -155/-132]”, the binding result in data set [1] and in data set [2] was “binds” in each case.
